From paper PMC12040169 (PLOS Biology, 2025)
The other results are listed elsewhere or left out.

test system: T1, CTL2-GFP (C. trachomatis L2/434/Bu, GFP-expressing); parameters: species or system HeLa; Intracellular C. trachomatis growth in HeLa cells, bulk GFP fluorescence relative to DMSO; settings: bulk GFP, single well; 28.5 h, 10 µM; inhibitor
T1 construct: L2/434/Bu, GFP-expressing

| SMILES | % of control remaining [%] |
| --- | --- |
| Cc1cn(C2CC(O)C(CN=[N+]=[N-])O2)c(=O)[nH]c1=O (centres unmarked) [CBK201256] | 89.9802 |
| Cc1n[nH]c(O)c1C(c1ccc(OC(=O)c2ccccc2Cl)cc1)c1c(C)n[nH]c1O [CBK264520] | 123.599 |
| O=C(Oc1cccc2cccnc12)c1cc(S(=O)(=O)N2CCOCC2)ccc1Cl [CBK263210] | 113.888 |
| CC(=O)c1c(-c2ccc(C)cc2)nc2n(CCN3CCCCC3)c3ccccc3n12 [CBK278231C] | 100 |
| CCN(CC)CC(=O)Nc1sc2c(c1C#N)CCCC2 [CBK261646] | 100 |
| CCn1cc(CN2CCC(O)(c3ccc(C)cc3)CC2)c(C)n1 [CBK282955] | 141.088 |
| Cc1c(-c2cc(C(=O)NC(C)C3CC4CCC3C4)no2)cnn1C (centres unmarked) [CBK281653] | 127.165 |
| CNCC1CCN(C(=O)c2ccc(Oc3cccnc3)cc2)C1 (centres unmarked) [CBK304697] | 131.826 |
| COCCNC(=O)c1cc(C2CC2)nc2c1cnn2C(C)C [CBK306099] | 114.882 |
| O=C(NC1CCCCC1)O[C@@H]1CO[C@H]2[C@@H]1OC[C@@H]2Nc1nccc(-c2cccs2)n1 [CBK289514] | 110.678 |
| O=C1CN(c2cccc(C(F)(F)F)c2)C(=O)N1c1ccc(Cl)cc1 [CBK122769] | 100.164 |
| C=CCN1C(=O)CC2(C1=O)C(=O)N(C)c1ccc(OC)cc12 (centres unmarked) [CBK075158] | 99.3452 |
| O=C(O)CCSc1nc(-c2ccccc2)c(-c2ccccc2)n1-c1ccccc1 [CBK264837] | 80.0409 |
| Cc1ccc(NC(=O)CSc2nnc(C(O)c3ccccc3)n2-c2ccccc2)c(C)c1 (centres unmarked) [CBK266072] | 135.769 |
| CC(=O)NCC1CCC2(CCN(c3nc(C)nc(C)c3C)CC2)O1 (centres unmarked) [CBK307404] | 133.793 |
| CN(C)CCNc1c(N)c(=O)oc2ccccc12 [CBK261472] | 116.091 |
| CCNC(=O)N(C)C1CCN(c2ncnc3ccccc23)CC1 [CBK305537] | 114.42 |
| CSc1ccccc1C(=O)N1CCN(S(=O)(=O)c2sc(C(=O)O)c(C)c2C(=O)O)CC1 [CBK297149] | 137.566 |
| CCOC(=O)CCCCNC(O)C(Cl)(Cl)Cl (centres unmarked) [CBK261003C] | 103.06 |
| O=C(O)CCC(=O)Nc1ccc2c(c1)oc1ccccc12 [CBK261597] | 118.345 |
| C[C@@H](Nc1cncc(-c2ccncc2)n1)c1ccccc1 [CBK066055] | 155.43 |
| O=C(Cc1ccccc1[N+](=O)[O-])NNC(=S)Nc1ccc(F)c(Cl)c1 [CBK266904] | 124.491 |
| C[C@@H](Nc1cncc(-c2cccc3ccccc23)n1)c1ccccc1 [CBK065646] | 144.522 |
| C[C@@H](Cn1nc(-c2cccs2)oc1=O)NC(=O)C1CCCC1 [CBK284337] | 139.79 |
| CC(C)[C@H](CO)Nc1nccnc1-c1ccc(C(=O)N2CCOCC2)cc1 [CBK037012] | 174.937 |
| Cc1ccc(S(=O)(=O)n2nncc2C)cc1 [CBK001921] | 106.672 |
| C[C@@H](Nc1cncc(-c2ccc3c(c2)OCO3)n1)c1ccccc1 [CBK065954] | 93.1002 |

Ordered by molecular weight (rising): part of the list above

| SMILES | % of control remaining [%] |
| --- | --- |
| Cc1ccc(S(=O)(=O)n2nncc2C)cc1 [CBK001921] | 106.672 |
| CN(C)CCNc1c(N)c(=O)oc2ccccc12 [CBK261472] | 116.091 |
| Cc1cn(C2CC(O)C(CN=[N+]=[N-])O2)c(=O)[nH]c1=O (centres unmarked) [CBK201256] | 89.9802 |
| C[C@@H](Nc1cncc(-c2ccncc2)n1)c1ccccc1 [CBK066055] | 155.43 |
| O=C(O)CCC(=O)Nc1ccc2c(c1)oc1ccccc12 [CBK261597] | 118.345 |
| CCN(CC)CC(=O)Nc1sc2c(c1C#N)CCCC2 [CBK261646] | 100 |
| C=CCN1C(=O)CC2(C1=O)C(=O)N(C)c1ccc(OC)cc12 (centres unmarked) [CBK075158] | 99.3452 |
| COCCNC(=O)c1cc(C2CC2)nc2c1cnn2C(C)C [CBK306099] | 114.882 |
| CNCC1CCN(C(=O)c2ccc(Oc3cccnc3)cc2)C1 (centres unmarked) [CBK304697] | 131.826 |
| CCNC(=O)N(C)C1CCN(c2ncnc3ccccc23)CC1 [CBK305537] | 114.42 |
| C[C@@H](Cn1nc(-c2cccs2)oc1=O)NC(=O)C1CCCC1 [CBK284337] | 139.79 |
| C[C@@H](Nc1cncc(-c2cccc3ccccc23)n1)c1ccccc1 [CBK065646] | 144.522 |
| Cc1c(-c2cc(C(=O)NC(C)C3CC4CCC3C4)no2)cnn1C (centres unmarked) [CBK281653] | 127.165 |
| CC(=O)NCC1CCC2(CCN(c3nc(C)nc(C)c3C)CC2)O1 (centres unmarked) [CBK307404] | 133.793 |
| O=C1CN(c2cccc(C(F)(F)F)c2)C(=O)N1c1ccc(Cl)cc1 [CBK122769] | 100.164 |
| CC(C)[C@H](CO)Nc1nccnc1-c1ccc(C(=O)N2CCOCC2)cc1 [CBK037012] | 174.937 |
| O=C(Cc1ccccc1[N+](=O)[O-])NNC(=S)Nc1ccc(F)c(Cl)c1 [CBK266904] | 124.491 |
| CC(=O)c1c(-c2ccc(C)cc2)nc2n(CCN3CCCCC3)c3ccccc3n12 [CBK278231C] | 100 |
| O=C(NC1CCCCC1)O[C@@H]1CO[C@H]2[C@@H]1OC[C@@H]2Nc1nccc(-c2cccs2)n1 [CBK289514] | 110.678 |
| O=C(Oc1cccc2cccnc12)c1cc(S(=O)(=O)N2CCOCC2)ccc1Cl [CBK263210] | 113.888 |
| Cc1n[nH]c(O)c1C(c1ccc(OC(=O)c2ccccc2Cl)cc1)c1c(C)n[nH]c1O [CBK264520] | 123.599 |
| Cc1ccc(NC(=O)CSc2nnc(C(O)c3ccccc3)n2-c2ccccc2)c(C)c1 (centres unmarked) [CBK266072] | 135.769 |

Carrying on.

| SMILES | % of control remaining [%] |
| --- | --- |
| CC(=O)Nc1cccc(C(=O)N(Cc2ccccn2)CC2CCCO2)c1 (centres unmarked) [CBK306867] | 158.422 |
| CN(C)CCN(C)c1nc(-c2cc(C(F)(F)F)cc(C(F)(F)F)c2)cn2ccnc12 [CBK037971] | 150.368 |
| COc1ccc([C@@]23CC[C@@H](CNC(=O)c4ccc(C(F)(F)F)cc4)C[C@@H]2N(C)CC3)cc1OC [CBK042195] | 120.69 |
| O=C(Cc1ccccn1)NC(Cc1ccsc1)c1nccs1 (centres unmarked) [CBK282821] | 121.429 |
| CC(=O)C(C)Oc1ncn(-c2ccccc2)n1 (centres unmarked) [CBK008377] | 136.796 |
| CN1CCN(CCC(=O)Nc2cccc(Cl)c2)CC1 [CBK070793C] | 111.633 |
| O=C(Cn1nc(-c2cc3c(s2)CCC3)oc1=O)N1CCCC1 [CBK284712] | 129.505 |
| Cc1cc(C)c(C)c(S(=O)(=O)Nc2ccc(O)c(Sc3nc[nH]n3)c2)c1C [CBK267012] | 179.16 |
| Cc1ccc2oc(C(=O)N(CCO)CCc3ccncc3)c(C)c2c1 [CBK281642] | 116.923 |
| Cc1cc(C)cc(Nc2c(-c3ccc(C(=O)O)cc3)nc3cnccn23)c1 [CBK287166] | 133.548 |
| Cc1cccc(OCC(=O)NCC(c2cccs2)N2CCOCC2)c1 (centres unmarked) [CBK305426] | 122.9 |
| Cc1ccc(NC(=O)c2ccc3ccccc3n2)c(C)n1 [CBK200293] | 183.515 |
| CC(NC(=O)COc1ccc(Br)cc1)C(=O)O (centres unmarked) [CBK262083] | 102.762 |
| O=C1NCC2(CCN(C(=O)C3CCCC3)CC2)Oc2ccccc21 [CBK282920] | 114.382 |
| O=C1NC(=O)C(CC(=O)N2CCC3(CCN(C(=O)Cc4c[nH]c5ccccc45)C3)C2)N1 (centres unmarked) [CBK131436] | 111.191 |
| C=Cn1cc(CN2CCN(C3CCCCC3)C(=O)C2)c(C)n1 [CBK282561] | 122.374 |
| Cn1c(=O)n(CC(N)=O)c(=O)c2c1nc1oc(C(C)(C)C)cn12 [CBK306081] | 99.5911 |
| CC(c1ccc(F)c(F)c1)N(C)C(=O)Cn1ncn(C)c1=O (centres unmarked) [CBK305083] | 124.878 |
| Cc1ccc(S(=O)(=O)N(C)c2c(C)ccc(S(=O)(=O)N(C)CCO)c2C)cc1 [CBK264970] | 116.666 |
| Cn1cc(CNCc2ccc(N3CCCC3)nc2)c(-c2cccnc2)n1 [CBK306312] | 81.8158 |
| Cc1cc(C)nc(NC(=O)OCCc2cccnc2)c1 [CBK138234] | 98.051 |
| O=C(Nc1cccc2ncccc12)c1ccnc(N2CCOCC2)c1 [CBK287882] | 106.516 |
| Cc1ccc2[nH]c(/C(C#N)=C\c3cc(C)n(-c4ccc(S(N)(=O)=O)cc4)c3C)nc2c1 [CBK267611] | 132.218 |
| CN1CCCCCC1c1nc(-c2c[nH]c3ccccc23)nn1CCO (centres unmarked) [CBK306988] | 93.1959 |
| CC(=O)N1CCN(Cc2c(C(F)(F)F)[nH]c3ncc(C)cc23)CC1 [CBK284768] | 135.85 |
| COC(=O)CNC(=O)CNS(=O)(=O)c1ccc(C(C)=O)cc1 [CBK044117] | 85.5882 |
| CC(=O)N1C2CCC1CC(O)(Cn1ccc3ccnc(Cl)c31)C2 (centres unmarked) [CBK284868] | 101.503 |

| SMILES | % of control remaining [%] |
| --- | --- |
| Cc1ccc(NC(=O)c2nccc3ccccc23)c(C)n1 [CBK200294] | 175.502 |
| O=C(CN1C(=O)c2ccncc2C1=O)Nc1ccccn1 [CBK288624] | 121.108 |
| Cc1nc2ccccc2n1CC(=O)N(CCC#N)Cc1ccco1 [CBK306323] | 139.324 |
| Cc1ccc(F)c(OC2(C(=O)O)CCN(Cc3cnc(C)nc3)CC2)c1 [CBK306860] | 125.32 |
| NC(=O)c1ccccc1NC(=O)CCSc1ccc([N+](=O)[O-])cc1Cl [CBK266396] | 134.943 |
| CCN(CC)CCn1c(NC(=O)CCC2CCNC2)nc2ccccc21 (centres unmarked) [CBK304693] | 119.962 |
| Cc1ccc2c(c1)c(=O)cc(C(F)(F)F)n2CCNC(=O)C1CC1 [CBK284831] | 131.443 |
| Cc1ccc(S(=O)(=O)NC(C)(C)CSc2ccccn2)cc1 [CBK266360] | 213.096 |
| O=C(Cn1cnnn1)N1CCc2ccccc2C1 [CBK200335] | 161.142 |
| CCN(CC)CCNC(=O)N1CCN(c2ccccc2)CC1 [CBK155202] | 78.4235 |
| CCC(C)c1ccc(OCC(=O)Nc2ccc3[nH]c(=O)[nH]c3c2)cc1 (centres unmarked) [CBK266911] | 139.87 |
| Cn1c(SCc2cccnc2)nnc1-c1cccs1 [CBK067706] | 137.256 |
| O=C(Cn1cnnn1)NCc1cccnc1OCC(F)(F)F [CBK306467] | 144.432 |
| c1ccc(OCCOc2nccnc2-c2ccc3c(c2)OCO3)cc1 [CBK106714] | 100 |
| Nc1cc2cc(F)ccc2nc1C1CCN(C(=O)C2CC2)CC1 [CBK284657] | 138.05 |
| O=C(O)CC/C(=N\NC(=O)c1cccnc1)c1ccccc1 [CBK261305] | 97.4465 |
| COc1c(C)cccc1C(=O)N1CCCC(c2ccc(Nc3nc(C)cc(C)n3)cn2)C1 (centres unmarked) [CBK285989] | 73.4972 |
| CCc1nc2ccccc2n1CC(=O)N(Cc1cccnc1)C1CC1 [CBK304064] | 100.155 |
| COc1ccc(NC(=O)[C@@H]2C=CCN2C(=O)C2CC2)cc1 [CBK284277] | 67.1066 |
| OCC1CCCN1c1cncc(-c2cccc3ccccc23)n1 (centres unmarked) [CBK065509] | 144.531 |
| COc1cc(C(=O)Nc2ccc3[nH]ccc3c2)cc(OC)c1OC [CBK159696] | 117.725 |
| CCOC(=O)N1CCC(NC(=O)N2CCN(c3cc(C(F)(F)F)ccn3)CC2)CC1 [CBK162353] | 113.719 |
| Cc1[nH]c2ccccc2c1C(=O)CSc1nccn1Cc1ccccc1 [CBK297905] | 154.529 |
| O=C(NCc1ccc(F)cc1)c1ccc(Cn2ccnc2)cc1 [CBK297719] | 128.454 |
| O=C(CCCn1cc([N+](=O)[O-])cn1)Nc1cc(C(F)(F)F)ccc1Cl [CBK293987] | 127.663 |
| O=S(=O)(c1ccccc1C(F)(F)F)n1ccc2c(N3CCNCC3)nccc21 [CBK045605C] | 58.2521 |
